Experimental data taken from paper PMC6712033, “Proteasome subunit α1 overexpression preferentially drives canonical proteasome biogenesis and enhances stress tolerance in yeast” (Scientific Reports, 2019).
Results are given in words; binding and its absence hold for the method and conditions named. In cells and extracts the contact can be indirect. Some results given as binding are weak or reduced against the parent protein; the word gives no strength.

Columns and labels:
[1] = biological target: proteasome subunit α4 of the α4-α4 [DHFR] reporter (α4 [DH] and α4 [FR]) (S. cerevisiae) (UniProt P40303); experiment: split reporter; split-DHFR complementation in living yeast; α4 [DH] and α4 [FR] from centromeric plasmids in an α4Δ strain with WT copies of α3 and PBA3; growth on methotrexate plates, three days at 30 °C
[2] = biological target: proteasome subunit α4 of the α4-α4 [DHFR] reporter (α4 [DH] and α4 [FR]) (S. cerevisiae) (UniProt P40303); experiment: split reporter; split-DHFR complementation in living yeast; α4 [DH] and α4 [FR] from centromeric plasmids in an α4Δ strain with α3 or PBA3 deleted; growth on methotrexate plates, three days at 30 °C
[3] = biological target: proteasome subunit α4 with N79C and I155C substitutions (S. cerevisiae) (UniProt P40303); experiment: cross-linking; engineered disulfide crosslinking in yeast extracts (WT or pba3Δ, empty vector or α1 overexpressed); 250 µM CuCl2, 25 °C, 10 minutes; 50 mM HEPES pH 7.5, 150 mM NaCl, 5 mM MgCl2, 2 mM ATP; non-reducing SDS-PAGE, anti-His immunoblot; reversed by DTT
[4] = biological target: T1, proteasome subunit α2-K160C (S. cerevisiae, UniProt P23639 1-250, K160C); experiment: as above
T1 construct: 20S proteasome core particle subunit α2, S. cerevisiae, with an engineered cysteine at the α2-α3 interface; Detected with an anti-His antibody (TetraHis); also called His (α2); source: S. cerevisiae (WT or pba3Δ), in cell extract
T1 sequence (looked up): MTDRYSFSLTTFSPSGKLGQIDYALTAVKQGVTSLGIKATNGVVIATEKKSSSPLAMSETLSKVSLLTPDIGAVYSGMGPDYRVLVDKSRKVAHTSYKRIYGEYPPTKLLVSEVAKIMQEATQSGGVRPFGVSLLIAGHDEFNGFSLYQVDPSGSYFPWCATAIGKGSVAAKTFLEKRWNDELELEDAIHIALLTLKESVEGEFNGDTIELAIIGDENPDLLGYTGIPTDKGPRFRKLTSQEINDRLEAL

B1: proteasome subunit α4 of the α4-α4 [DHFR] reporter (α4 [DH] and α4 [FR]) (protein, UniProt P40303 1-254)
chain: MSGYDRALSIFSPDGHIFQVEYALEAVKRGTCAVGVKGKNCVVLGCERRSTLKLQDTRITPSKVSKIDSHVVLSFSGLNADSRILIEKARVEAQSHRLTLEDPVTVEYLTRYVAGVQQRYTQSGGVRPFGVSTLIAGFDPRDDEPKLYQTEPSGIYSSWSAQTIGRNSKTVREFLEKNYDRKEPPATVEECVKLTVRSLLEVVQTGAKNIEITVVKPDSDIVALSSEEINQYVTQIEQEKQEQQEQDKKKKSNH
binding [1]: binds weakly
binding [2]: binds

B2: proteasome subunit α4 with N79C and I155C substitutions (protein, UniProt P40303 1-254)
chain: MSGYDRALSIFSPDGHIFQVEYALEAVKRGTCAVGVKGKNCVVLGCERRSTLKLQDTRITPSKVSKIDSHVVLSFSGLCADSRILIEKARVEAQSHRLTLEDPVTVEYLTRYVAGVQQRYTQSGGVRPFGVSTLIAGFDPRDDEPKLYQTEPSGCYSSWSAQTIGRNSKTVREFLEKNYDRKEPPATVEECVKLTVRSLLEVVQTGAKNIEITVVKPDSDIVALSSEEINQYVTQIEQEKQEQQEQDKKKKSNH
binding [3]: binds

B3: proteasome subunit α3-L56C (natural protein, S. cerevisiae, UniProt P23638 1-258, looked up)
chain: MGSRRYDSRTTIFSPEGRLYQVEYALESISHAGTAIGIMASDGIVLAAERKVTSTCLEQDTSTEKLYKLNDKIAVAVAGLTADAEILINTARIHAQNYLKTYNEDIPVEILVRRLSDIKQGYTQHGGLRPFGVSFIYAGYDDRYGYQLYTSNPSGNYTGWKAISVGANTSAAQTLLQMDYKDDMKVDDAIELALKTLSKTTDSSALTYDRLEFATIRKGANDGEVYQKIFKPQEIKDILVKTGITKKDEDEEADEDMK
notes: 20S proteasome core particle subunit α3, S. cerevisiae, with an engineered cysteine at the α2-α3 interface; source: S. cerevisiae (WT or pba3Δ), in cell extract
binding [4]: binds
